According to US9623049B2, “Immunotherapy using redirected allogeneic cells” (YEDA RESEARCH AND DEVELOPMENT CO. LTD., priority 2010, dated 2017):

Assay: In vivo bioluminescence imaging (IVIS) of luciferase+ T-bodies in Renca-Her2/neu-bearing mice
Design: species or system Balb/c mice
Conditions: 400 rads, FTY720 0.3 mg/kg ip

CCCCCCCCc1ccc(CCC(N)(CO)CO)cc1.Cl [FTY720, 2-amino-2-[2-(4-octylphenyl)ethyl]propane-1,3-diol]
effect of FTY720 on BLI signal of allogeneic T-bodies (30x10^6 allogeneic T-bodies): higher, especially from the lymphatic organs, and persisted for a longer time
effect of FTY720 on migration or persistence of syngeneic T-bodies (30x10^6 syngeneic T-bodies): did not seem to significantly alter the migration or the persistence
